Laboratory results as given in US20180303937A1, “A COMPOSITION FOR CONTROLLED RELEASE OF A BIOMOLECULE, METHOD OF PREPARATION AND USES THEREOF” (CENTRO DE NEUROCIENCIAS E BIOLOGIA CELULAR, priority 2015, published 2018).

Tested on: SC-1 mouse fibroblasts
Assay: Light-induced release of fluorescent proteins in cells (confocal microscopy, Manders' colocalization)
Assay type: cell-based
Details: for stimulus that induced primarily the release in cells: dual protein AuNR-TRITC, 4 h incubation, NIR laser

Row | Substance | cell fluorescence after irradiation (irradiation with 1.25 or 2 W/cm^2) | colocalization between DL488-BSA and AuNR when cells are irradiated (versus non-irradiated cells) | stimulus that induced primarily the release in cells
1 | DL488-BSA | increased fluorescence of the cell | decreases | –
2 | DL488-BSA-ssDNA68.9 | – | – | second stimulus (2 W/cm^2, 2 min)
3 | DL650-BSA-ssDNA51.7 | – | – | first stimulus (1.25 W/cm^2, 2 min)
